# Laboratory results: US20100196874A1, “METHOD OF DRUG DESIGN” (priority 2006, published 2010)
# Some of these results come from one statement about several compounds together.
# Tested on: CVB3
# Conditions: antiviral activity versus toxicity, HeLa cell culture with CVB3
structure (smiles),measurement,value
CN(C)c1nc(N)c(C(=O)N=C(N)N)nc1Cl [DMA],IC50/CC50 ratio,less than 2.5
